These are yes or no findings as the source states them, for the method shown. Binding can be weak; no strength is given.

The test has as its target T1, scavenger receptor class B type I on CHO cells (human) (UniProt Q8WTV0).
T1 sequence: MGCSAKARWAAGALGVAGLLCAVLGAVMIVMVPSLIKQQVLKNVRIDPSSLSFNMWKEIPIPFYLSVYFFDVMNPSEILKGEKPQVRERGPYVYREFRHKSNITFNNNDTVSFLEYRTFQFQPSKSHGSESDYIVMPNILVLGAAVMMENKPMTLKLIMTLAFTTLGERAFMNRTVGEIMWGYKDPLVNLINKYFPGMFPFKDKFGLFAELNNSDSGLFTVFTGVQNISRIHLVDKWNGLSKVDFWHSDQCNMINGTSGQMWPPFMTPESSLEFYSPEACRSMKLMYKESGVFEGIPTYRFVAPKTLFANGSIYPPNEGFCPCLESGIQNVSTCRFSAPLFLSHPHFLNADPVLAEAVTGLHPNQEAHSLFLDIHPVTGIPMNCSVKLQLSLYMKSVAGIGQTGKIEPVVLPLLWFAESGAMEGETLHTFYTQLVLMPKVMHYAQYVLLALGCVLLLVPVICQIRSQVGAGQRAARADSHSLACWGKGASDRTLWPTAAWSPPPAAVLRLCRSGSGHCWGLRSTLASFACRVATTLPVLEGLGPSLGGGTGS
Briefly: flow cytometry on cells; 10 ug Fc-E1E2 with CHO cells stably expressing CD81 or SR-BI (or parental CHO), 2 h at room temperature; PE anti-human IgG Fc; only the binder purified. (In general: A flow cytometer gives signals particle by particle.)
“Fc-E1E2 from H77 (GT1a), recombinant full-length E1E2 heterodimer (hepatitis C virus, strain H77 (GT1a)) (complex)”: the binding result was “binds”. For “Fc-E1E2 from HK6a (GT6a), recombinant full-length E1E2 heterodimer (hepatitis C virus, strain HK6a (GT6a)) (complex)” the value was “binds”; for “Fc-E1E2 from J6 (GT2a), recombinant full-length E1E2 heterodimer (hepatitis C virus, strain J6 (GT2a)) (complex)”, “binds”; for “Fc-E1E2 from S52 (GT3a), recombinant full-length E1E2 heterodimer (hepatitis C virus, strain S52 (GT3a)) (complex)”, “binds”.

The values above are taken from PMC9273934.
